Measurements from PMC12737465.
These are yes or no findings as the source states them, for the method shown. Binding calls can cover weak binding; strength is not graded here. Sequences can lack the tags named with a protein.

B1: glutathione S-transferase (GST) fused E. coli stalk L12 C-terminal domain, 74 aa (domain or fragment)
chain: AAEEKTEFDVILKAAGANKVAVIKAVRGATGLGLKEAKDLVESAPAALKEGVSKDDAEALKKALEEAGAEVEVK
B2: glutathione S-transferase (GST) fused human P2-stalk C-terminal peptide, 17 aa (peptide)
chain: KEESEESDDDMGFGLFD
B3: glutathione S-transferase (GST) fused human P2-stalk C-terminal peptide, 11 aa (peptide)
chain: SDDDMGFGLFD

These binders were tested against trichosanthin (TCS), recombinant with hexa-histidine tag (Trichosanthes kirilowii) (assay: pull-down; 50 ug His-tagged MAP-EQRQ or TCS mixed with 50 ug GST-stalk in 1 mL 10 mM Tris-HCl pH 7.5, 150 mM NaCl, 30 min on ice; trapped on Ni-NTA-agarose via the hexa-histidine tag, washed (20 mM imidazole), eluted with 500 mM imidazole, SDS-PAGE; both purified).

| Binder | binding |
| --- | --- |
| B1 | no binding (tested: 50 ug of each protein in 1 mL) |
| B2 | binds |
| B3 | binds |
